Test results taken from the supplement of paper PMC12823440, “Inhibitors supercharge kinase turnover through native proteolytic circuits” (Nature, 2025).
Where a name gives a salt, the structure may show the parent alone. The list shows a part of the results. The calls rarely recur for the same compound in another form.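 In K562 cells expressing nanoluciferase-fused kinases, luminescence was recorded at 4 h intervals between 2 and 18 h, normalized as percent of control with DMSO at 100% and a positive control at 0%. A significant (2 sigma) signal drop marks a time point as decreased. The authors' rule for a hit is not shown and takes in more than the number of time points.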

Sequences of proteins named here, by UniProt entry; tags and fusion partners are left off. A change or cut given only in a name is not applied to a line headed by its entry.
UniProt O96013: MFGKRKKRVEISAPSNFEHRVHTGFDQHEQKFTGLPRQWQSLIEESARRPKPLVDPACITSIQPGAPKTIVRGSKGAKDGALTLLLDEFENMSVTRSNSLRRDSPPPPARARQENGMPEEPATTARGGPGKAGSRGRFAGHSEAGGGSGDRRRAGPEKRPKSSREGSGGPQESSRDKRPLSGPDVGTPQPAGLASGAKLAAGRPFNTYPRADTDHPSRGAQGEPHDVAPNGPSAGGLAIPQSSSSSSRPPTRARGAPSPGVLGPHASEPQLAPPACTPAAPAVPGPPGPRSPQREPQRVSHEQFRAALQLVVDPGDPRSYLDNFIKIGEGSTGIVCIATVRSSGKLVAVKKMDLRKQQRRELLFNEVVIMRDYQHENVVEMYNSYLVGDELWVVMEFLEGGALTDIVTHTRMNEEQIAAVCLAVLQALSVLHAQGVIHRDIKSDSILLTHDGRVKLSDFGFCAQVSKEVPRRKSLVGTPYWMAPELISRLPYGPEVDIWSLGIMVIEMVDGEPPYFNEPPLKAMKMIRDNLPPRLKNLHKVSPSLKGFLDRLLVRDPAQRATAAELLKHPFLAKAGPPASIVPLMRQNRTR
UniProt Q96KB5: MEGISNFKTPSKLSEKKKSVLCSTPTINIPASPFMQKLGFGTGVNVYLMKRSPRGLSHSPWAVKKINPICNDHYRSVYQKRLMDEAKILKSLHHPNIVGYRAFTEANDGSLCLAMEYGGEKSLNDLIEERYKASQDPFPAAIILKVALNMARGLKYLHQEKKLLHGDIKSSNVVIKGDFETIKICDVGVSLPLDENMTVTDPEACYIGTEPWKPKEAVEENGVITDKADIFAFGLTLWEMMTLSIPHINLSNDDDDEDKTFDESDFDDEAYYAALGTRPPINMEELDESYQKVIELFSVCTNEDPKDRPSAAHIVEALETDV
UniProt Q15118, whole entry, looked up: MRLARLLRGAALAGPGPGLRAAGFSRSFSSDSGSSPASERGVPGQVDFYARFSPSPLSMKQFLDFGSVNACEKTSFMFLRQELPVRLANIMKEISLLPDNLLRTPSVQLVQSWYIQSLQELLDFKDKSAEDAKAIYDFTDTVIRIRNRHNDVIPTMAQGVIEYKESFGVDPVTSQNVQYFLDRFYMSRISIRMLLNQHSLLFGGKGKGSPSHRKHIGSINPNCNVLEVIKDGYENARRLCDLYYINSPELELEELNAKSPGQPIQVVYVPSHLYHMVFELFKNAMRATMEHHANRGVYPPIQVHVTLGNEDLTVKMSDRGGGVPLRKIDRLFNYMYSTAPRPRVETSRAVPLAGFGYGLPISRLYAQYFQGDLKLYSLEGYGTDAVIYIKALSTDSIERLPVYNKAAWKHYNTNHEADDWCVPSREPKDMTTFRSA
UniProt O15530: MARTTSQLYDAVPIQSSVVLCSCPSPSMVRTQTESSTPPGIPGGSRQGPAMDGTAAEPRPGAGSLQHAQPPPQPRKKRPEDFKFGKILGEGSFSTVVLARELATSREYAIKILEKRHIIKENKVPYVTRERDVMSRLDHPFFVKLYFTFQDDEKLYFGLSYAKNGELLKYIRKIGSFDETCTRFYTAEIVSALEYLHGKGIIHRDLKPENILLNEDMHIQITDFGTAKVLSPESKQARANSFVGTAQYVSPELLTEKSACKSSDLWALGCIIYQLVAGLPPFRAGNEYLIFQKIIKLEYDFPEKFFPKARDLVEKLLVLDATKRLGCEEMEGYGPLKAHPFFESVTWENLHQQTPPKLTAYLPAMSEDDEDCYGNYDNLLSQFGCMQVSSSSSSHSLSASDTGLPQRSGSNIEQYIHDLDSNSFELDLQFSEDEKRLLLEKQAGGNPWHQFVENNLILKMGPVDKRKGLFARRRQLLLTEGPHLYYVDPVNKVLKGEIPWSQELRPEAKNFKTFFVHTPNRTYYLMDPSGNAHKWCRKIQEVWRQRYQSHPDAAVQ
UniProt P53350, whole entry: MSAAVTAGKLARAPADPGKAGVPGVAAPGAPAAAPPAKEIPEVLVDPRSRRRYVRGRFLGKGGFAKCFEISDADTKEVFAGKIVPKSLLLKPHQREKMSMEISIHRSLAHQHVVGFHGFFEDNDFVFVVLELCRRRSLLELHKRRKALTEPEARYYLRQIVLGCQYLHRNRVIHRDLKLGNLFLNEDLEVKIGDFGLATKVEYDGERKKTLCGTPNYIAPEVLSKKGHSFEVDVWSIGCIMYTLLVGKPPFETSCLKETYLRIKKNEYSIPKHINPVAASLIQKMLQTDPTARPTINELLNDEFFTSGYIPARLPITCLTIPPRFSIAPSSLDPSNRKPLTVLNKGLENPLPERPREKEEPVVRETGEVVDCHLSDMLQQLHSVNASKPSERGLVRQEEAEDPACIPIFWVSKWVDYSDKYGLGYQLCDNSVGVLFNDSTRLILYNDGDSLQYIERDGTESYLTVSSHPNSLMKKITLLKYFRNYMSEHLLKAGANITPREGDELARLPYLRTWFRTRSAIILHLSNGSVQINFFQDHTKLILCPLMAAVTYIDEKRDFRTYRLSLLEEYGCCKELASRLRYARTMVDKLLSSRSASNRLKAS
UniProt Q05397, whole entry, looked up: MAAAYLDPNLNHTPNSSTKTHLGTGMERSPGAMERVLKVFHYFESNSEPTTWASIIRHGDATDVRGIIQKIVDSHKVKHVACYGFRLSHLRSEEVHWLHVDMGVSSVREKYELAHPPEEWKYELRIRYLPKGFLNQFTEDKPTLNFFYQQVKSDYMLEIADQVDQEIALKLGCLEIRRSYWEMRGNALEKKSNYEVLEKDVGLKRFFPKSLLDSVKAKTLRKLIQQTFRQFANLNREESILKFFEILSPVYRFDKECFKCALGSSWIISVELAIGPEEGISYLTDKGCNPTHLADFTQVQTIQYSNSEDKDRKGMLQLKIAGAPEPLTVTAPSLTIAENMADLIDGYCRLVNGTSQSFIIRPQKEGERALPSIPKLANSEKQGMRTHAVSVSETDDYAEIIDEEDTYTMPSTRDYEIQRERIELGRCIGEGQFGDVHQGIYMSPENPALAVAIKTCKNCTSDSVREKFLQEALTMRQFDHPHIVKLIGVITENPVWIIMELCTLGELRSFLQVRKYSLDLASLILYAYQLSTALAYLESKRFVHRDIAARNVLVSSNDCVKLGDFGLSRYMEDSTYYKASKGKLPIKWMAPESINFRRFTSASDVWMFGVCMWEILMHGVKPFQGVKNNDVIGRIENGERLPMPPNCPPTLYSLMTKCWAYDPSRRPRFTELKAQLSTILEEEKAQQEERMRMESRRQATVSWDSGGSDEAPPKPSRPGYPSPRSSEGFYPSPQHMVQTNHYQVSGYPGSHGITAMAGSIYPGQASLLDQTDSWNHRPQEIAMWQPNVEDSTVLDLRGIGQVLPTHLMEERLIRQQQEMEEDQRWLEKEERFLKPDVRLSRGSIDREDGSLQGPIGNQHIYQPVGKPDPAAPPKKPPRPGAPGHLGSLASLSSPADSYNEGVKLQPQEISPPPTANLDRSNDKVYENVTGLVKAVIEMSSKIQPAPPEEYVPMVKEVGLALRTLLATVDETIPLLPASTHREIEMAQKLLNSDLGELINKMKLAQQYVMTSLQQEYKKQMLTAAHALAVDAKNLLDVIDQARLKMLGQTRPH
UniProt P07949, whole entry, looked up: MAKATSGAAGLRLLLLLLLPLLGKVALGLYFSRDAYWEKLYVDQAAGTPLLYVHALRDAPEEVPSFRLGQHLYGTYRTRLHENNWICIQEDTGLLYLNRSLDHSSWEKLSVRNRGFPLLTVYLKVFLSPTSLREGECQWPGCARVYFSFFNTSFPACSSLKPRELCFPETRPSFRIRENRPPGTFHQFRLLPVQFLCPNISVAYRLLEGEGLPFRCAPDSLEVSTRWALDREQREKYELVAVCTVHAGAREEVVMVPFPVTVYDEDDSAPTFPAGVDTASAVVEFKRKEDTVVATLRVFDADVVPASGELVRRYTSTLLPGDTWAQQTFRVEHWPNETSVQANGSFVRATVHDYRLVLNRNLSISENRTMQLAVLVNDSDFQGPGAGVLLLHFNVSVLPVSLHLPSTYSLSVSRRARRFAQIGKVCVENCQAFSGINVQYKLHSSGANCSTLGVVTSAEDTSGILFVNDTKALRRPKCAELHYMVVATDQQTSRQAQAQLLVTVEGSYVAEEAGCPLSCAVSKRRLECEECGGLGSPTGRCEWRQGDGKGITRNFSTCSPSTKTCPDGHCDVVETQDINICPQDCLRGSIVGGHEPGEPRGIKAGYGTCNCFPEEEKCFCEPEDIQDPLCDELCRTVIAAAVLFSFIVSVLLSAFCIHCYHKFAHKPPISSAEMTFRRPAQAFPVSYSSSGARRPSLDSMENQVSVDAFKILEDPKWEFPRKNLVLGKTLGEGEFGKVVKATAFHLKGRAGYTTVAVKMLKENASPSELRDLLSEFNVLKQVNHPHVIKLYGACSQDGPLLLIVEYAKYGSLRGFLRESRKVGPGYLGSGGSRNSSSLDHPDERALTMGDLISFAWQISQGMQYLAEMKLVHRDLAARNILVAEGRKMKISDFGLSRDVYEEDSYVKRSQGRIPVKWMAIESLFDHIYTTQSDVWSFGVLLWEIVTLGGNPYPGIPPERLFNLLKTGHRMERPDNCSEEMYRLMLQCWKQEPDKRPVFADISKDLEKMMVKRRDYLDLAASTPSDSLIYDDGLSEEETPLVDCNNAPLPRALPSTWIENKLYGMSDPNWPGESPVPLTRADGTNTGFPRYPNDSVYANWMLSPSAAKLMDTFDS
UniProt P07949, whole entry M918T, looked up: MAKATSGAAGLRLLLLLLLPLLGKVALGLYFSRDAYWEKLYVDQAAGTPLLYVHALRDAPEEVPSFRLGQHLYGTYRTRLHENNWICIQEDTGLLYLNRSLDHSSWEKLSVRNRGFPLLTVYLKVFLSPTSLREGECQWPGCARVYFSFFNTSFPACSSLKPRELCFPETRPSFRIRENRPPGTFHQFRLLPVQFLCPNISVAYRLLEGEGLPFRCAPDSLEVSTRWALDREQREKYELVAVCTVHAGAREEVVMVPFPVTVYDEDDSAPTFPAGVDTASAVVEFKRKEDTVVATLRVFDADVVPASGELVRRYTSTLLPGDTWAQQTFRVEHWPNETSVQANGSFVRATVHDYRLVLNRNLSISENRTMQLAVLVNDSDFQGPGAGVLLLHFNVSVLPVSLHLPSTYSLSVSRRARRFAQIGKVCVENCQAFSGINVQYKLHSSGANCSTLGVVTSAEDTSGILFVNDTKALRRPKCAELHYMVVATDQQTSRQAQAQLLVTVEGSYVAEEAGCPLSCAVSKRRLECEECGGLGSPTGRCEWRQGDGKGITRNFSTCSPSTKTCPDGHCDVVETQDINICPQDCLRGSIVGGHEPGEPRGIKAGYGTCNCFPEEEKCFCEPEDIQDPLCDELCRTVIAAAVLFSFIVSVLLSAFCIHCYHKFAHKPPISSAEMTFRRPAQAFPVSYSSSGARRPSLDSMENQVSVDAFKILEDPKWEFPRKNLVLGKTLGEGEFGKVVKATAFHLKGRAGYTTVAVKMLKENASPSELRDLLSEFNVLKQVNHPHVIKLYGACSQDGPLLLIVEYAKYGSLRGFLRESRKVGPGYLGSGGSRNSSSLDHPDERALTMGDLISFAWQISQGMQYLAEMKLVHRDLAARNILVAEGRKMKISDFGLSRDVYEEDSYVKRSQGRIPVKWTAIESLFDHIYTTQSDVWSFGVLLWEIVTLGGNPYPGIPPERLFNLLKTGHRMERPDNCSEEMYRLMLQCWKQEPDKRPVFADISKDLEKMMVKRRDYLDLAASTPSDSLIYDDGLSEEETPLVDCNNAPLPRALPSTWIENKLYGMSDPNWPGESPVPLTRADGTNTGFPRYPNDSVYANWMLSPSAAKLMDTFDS

Experiments:
Assay in all cases: number of time points (of 5) at which kinase-Nluc abundance scored as decreased, DMSO-normalised (count); higher = more persistent destabilization
Settings in all cases: K562; 2-18 h
[1] = target: NTRK3 (UniProt Q16288)
[2] = target: PAK4 (UniProt O96013)
[3] = target: PBK (UniProt Q96KB5)
[4] = target: PDGFRB (UniProt P09619)
[5] = target: PDK1 (UniProt Q15118)
[6] = target: PDPK1 (UniProt O15530)
[7] = target: PIK4CA (UniProt P42356)
[8] = target: PIK4CB (UniProt Q9UBF8)
[9] = target: PLK1 (UniProt P53350)
[10] = target: PRKAA1 (UniProt Q13131)
[11] = target: PRKCA (UniProt P17252)
[12] = target: PTK2 (UniProt Q05397)
[13] = target: PTK2B (UniProt Q14289)
[14] = target: RAF1 (UniProt P04049)
[15] = target: RAF1_S257L (clone: RAF1_mut) (UniProt P04049)
[16] = target: RET (UniProt P07949)
[17] = target: RET_M918T (clone: RET_mut) (UniProt P07949)
[18] = target: RIOK1 (UniProt Q9BRS2)
[19] = target: RIPK1 (UniProt Q13546)
[20] = target: RIPK2 (UniProt O43353)

Measured: number of time points

O=C(c1cccc(Cl)c1F)N1CCN(Cc2cccc(Nc3nccs3)n2)CC1 (2.5 µM)
0: all assays above

COCCOc1ccc2c(c1)ncn2-c1ccc2cccc(N3CCC(N)CC3)c2n1 (10 µM)
1: [13]
0: [2] | [3] | [5] | [9] | [11] | [17]
4: [6] | [15]
3: [7] | [19] | [20]
2: all other assays above

COc1cc2ncnc(Nc3ccc(O)c(Br)c3)c2cc1OC (10 µM)
2: [6]
0: all other assays above

COC(=O)[C@H](CCSC)NC(=O)c1ccc(NC[C@@H](N)CS)cc1-c1ccccc1 [FTI-277 (hydrochloride)] (10 µM)
0: all assays above

CC(C)n1ncnc1-c1cn2c(n1)-c1ccc(O[C@@H](C)C(N)=O)cc1OCC2 (10 µM)
0: all assays above

CC(Cc1ccc(O)c(O)c1)C(C)Cc1ccc(O)c(O)c1 (stereo not given) [Nordihydroguaiaretic acid] (2.5 µM)
0: all assays above

COc1ccc(Br)cc1NC(=O)Nc1cccc2c1ccn2Cc1ccnc(N)c1 (2.5 µM)
0: all assays above

Cc1cc(-n2c(=O)ccc3c[nH]c4nccc-4c32)ccc1F (10 µM)
1: [15]
0: all other assays above

O=C1OC(/C=C/c2ccccc2)=NC/1=C\c1cccnc1 (10 µM)
0: all assays above

Arranged by molecular weight (falling): part of the list above.
COc1ccc(Br)cc1NC(=O)Nc1cccc2c1ccn2Cc1ccnc(N)c1 (2.5 µM)
0: all assays above

Cc1cc(-n2c(=O)ccc3c[nH]c4nccc-4c32)ccc1F (10 µM)
1: [15]
0: all other assays above

O=C1OC(/C=C/c2ccccc2)=NC/1=C\c1cccnc1 (10 µM)
0: all assays above

Later entries

NCCOc1ccc(Cl)cc1C(=O)Nc1ccc([N+](=O)[O-])cc1Cl [HJC0152 hydrochloride] (2 µM)
0: all assays above

COc1ccc(-c2cc(=O)c3c(OC)cc(OC)c(OC)c3o2)cc1 [6-Demethoxytangeretin] (10 µM)
0: all assays above

COc1cc2nccc(Oc3ccc(NC(=O)c4cn(C(C)C)c(=O)n(-c5ccc(F)cc5)c4=O)cc3F)c2cc1OC (0.5 µM)
1: [9]
4: [6]
3: [12]
0: all other assays above

CC1=C(C(=O)Nc2cc3cn[nH]c3cc2F)C(c2ccc(C(F)(F)F)cc2)CC(=O)N1 (stereo not given) (10 µM)
0: all assays above

Cc1cc(Nc2cc(N3CCN(C)CC3)nc(Nc3ccc([N+](=O)[O-])cc3)n2)n[nH]1 (2.5 µM)
4: [4]
2: [14]
3: [12]
0: all other assays above

Cc1c(C(=O)Nc2ccc(Oc3ccnc4[nH]cc(-c5ccccc5)c34)c(F)c2)c(=O)n(-c2ccc(F)cc2)n1C (10 µM)
1: [6] | [20]
0: all other assays above

C=C1CCC[C@]2(C)C=C3OC(=O)C(C)=C3C[C@@H]12 [Atractylenolide I] (10 µM)
0: all assays above

CNC(=O)c1ccc2c(c1)ncn2-c1ccc(CC(=O)OC(C)(C)C)cc1 (10 µM)
0: all assays above

O=C(NCCO)c1cc(C(=O)NCCO)cc(C(=O)NCCO)c1 (10 µM)
0: all assays above

C=CC(=O)N1CCC[C@@H](n2nc(-c3ccc(Oc4ccccc4)cc3)c3c(N)n[nH]c(=O)c32)C1 [BTK inhibitor 17] (10 µM)
0: all assays above

CNC(=O)c1cc2c(Oc3ccc(NC(=O)C4(C(=O)Nc5ccc(F)cc5)CC4)cc3)ccnc2cc1OC (2.5 µM)
0: [2] | [3] | [5] | [11]
4: [4] | [6] | [15]
3: [9] | [14] | [20]
2: [7] | [10] | [18] | [19]
1: all other assays above

Cc1ccc(C)c(OCCn2cc(C(=O)O)c3ccccc32)c1 (10 µM)
0: all assays above

O=C1CC[C@H](NC(=O)Cc2ccccc2)C(=O)N1 [Antineoplaston A10] (10 µM)
0: all assays above

CCn1c(-c2nonc2N)nc2c(C#CC(C)(C)O)ncc(OC[C@H]3CCCNC3)c21 (10 µM)
0: all assays above

CC(C)n1c([C@H](C)Nc2ncnc(N)c2C#N)cc2cccc(-c3ccc(=O)n(C)c3)c2c1=O (10 µM)
3: [15]
0: all other assays above

O=c1cc(-c2ccccc2)oc2cc(O[C@@H]3O[C@H](CO[C@@H]4O[C@H](CO)[C@@H](O)[C@H](O)[C@H]4O)[C@@H](O)[C@H](O)[C@H]3O)c(O)c(O)c12 [Oroxin B] (10 µM)
0: all assays above
